At least one structure is not confirmed: it was looked up by name or label, or the drawing left a doubt.
Columns and labels:
isoMnSOD [1] = assay: Pro-oxidant activity of isoMnSOD, at least one of the assays provided in the Examples; settings: according to at least one of the assays provided in the Examples
isoMnSOD [2] = assay: Peroxidative assay of native mitochondrial extracts from compound-treated pancreatic explants (ROS-activity blot); type: cell-based, pig; settings: pancreatic explant cultured 1 hr at 37° C. with equal volume of 2 μM compound; FIG. 1
isoMnSOD [3] = target: T1, isoMnSOD (Homo sapiens, UniProt P04179); assay: Detection of inhibitors bound to isoMnSOD (immunoprecipitation/western blot); settings: anti-dopamine or anti-serotonin antibody; FIG. 2A and 2B
T1 sequence (P04179 25-183 isoform P04179-2 limits assumed): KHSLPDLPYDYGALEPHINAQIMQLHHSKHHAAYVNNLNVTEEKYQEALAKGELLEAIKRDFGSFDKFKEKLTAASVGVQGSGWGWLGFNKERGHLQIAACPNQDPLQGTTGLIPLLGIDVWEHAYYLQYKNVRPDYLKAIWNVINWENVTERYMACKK

isoMnSOD [4] = assay: Drug inhibition method: peroxidative activity of isoMnSOD on PVDF strips (ROS-activity blot); settings: 1 μM test compound for 30 minutes; 1 mM H2O2, luminol chemiluminescence; FIG. 4

SMILES: CCCCC/C=C\C/C=C\C/C=C\C/C=C\CCCC(=O)NCCc1ccc(O)c(O)c1 [arachidonoyl-dopamine, arachidonoyl dopamine]
- pro-oxidant activity of isoMnSOD (isoMnSOD [1]): found to inhibit pro-oxidant activity of isoMnSOD
- mitochondrial peroxidase activity (isoMnSOD [2]): did not inhibit peroxidase activity to the same effect
- binding to isoMnSOD (covalent modification of the MnSOD-Exon3-deleted isoform) (isoMnSOD [3]): able to bind to isoMnSOD
- peroxidative activity of isoMnSOD (isoMnSOD [4]): inhibit peroxidative activity more significantly than the other compounds

From patent publication US8324279B2, “Compositions and methods for inhibiting an isoform of human manganese superoxide dismutase” (MitoTek, LLC, priority 2003, dated 2012)
